Results on nine molecules are retold here after publication PMC5840266.

Chains of the proteins cited; added tags and fusions are not shown.
UniProt Q9ULT8: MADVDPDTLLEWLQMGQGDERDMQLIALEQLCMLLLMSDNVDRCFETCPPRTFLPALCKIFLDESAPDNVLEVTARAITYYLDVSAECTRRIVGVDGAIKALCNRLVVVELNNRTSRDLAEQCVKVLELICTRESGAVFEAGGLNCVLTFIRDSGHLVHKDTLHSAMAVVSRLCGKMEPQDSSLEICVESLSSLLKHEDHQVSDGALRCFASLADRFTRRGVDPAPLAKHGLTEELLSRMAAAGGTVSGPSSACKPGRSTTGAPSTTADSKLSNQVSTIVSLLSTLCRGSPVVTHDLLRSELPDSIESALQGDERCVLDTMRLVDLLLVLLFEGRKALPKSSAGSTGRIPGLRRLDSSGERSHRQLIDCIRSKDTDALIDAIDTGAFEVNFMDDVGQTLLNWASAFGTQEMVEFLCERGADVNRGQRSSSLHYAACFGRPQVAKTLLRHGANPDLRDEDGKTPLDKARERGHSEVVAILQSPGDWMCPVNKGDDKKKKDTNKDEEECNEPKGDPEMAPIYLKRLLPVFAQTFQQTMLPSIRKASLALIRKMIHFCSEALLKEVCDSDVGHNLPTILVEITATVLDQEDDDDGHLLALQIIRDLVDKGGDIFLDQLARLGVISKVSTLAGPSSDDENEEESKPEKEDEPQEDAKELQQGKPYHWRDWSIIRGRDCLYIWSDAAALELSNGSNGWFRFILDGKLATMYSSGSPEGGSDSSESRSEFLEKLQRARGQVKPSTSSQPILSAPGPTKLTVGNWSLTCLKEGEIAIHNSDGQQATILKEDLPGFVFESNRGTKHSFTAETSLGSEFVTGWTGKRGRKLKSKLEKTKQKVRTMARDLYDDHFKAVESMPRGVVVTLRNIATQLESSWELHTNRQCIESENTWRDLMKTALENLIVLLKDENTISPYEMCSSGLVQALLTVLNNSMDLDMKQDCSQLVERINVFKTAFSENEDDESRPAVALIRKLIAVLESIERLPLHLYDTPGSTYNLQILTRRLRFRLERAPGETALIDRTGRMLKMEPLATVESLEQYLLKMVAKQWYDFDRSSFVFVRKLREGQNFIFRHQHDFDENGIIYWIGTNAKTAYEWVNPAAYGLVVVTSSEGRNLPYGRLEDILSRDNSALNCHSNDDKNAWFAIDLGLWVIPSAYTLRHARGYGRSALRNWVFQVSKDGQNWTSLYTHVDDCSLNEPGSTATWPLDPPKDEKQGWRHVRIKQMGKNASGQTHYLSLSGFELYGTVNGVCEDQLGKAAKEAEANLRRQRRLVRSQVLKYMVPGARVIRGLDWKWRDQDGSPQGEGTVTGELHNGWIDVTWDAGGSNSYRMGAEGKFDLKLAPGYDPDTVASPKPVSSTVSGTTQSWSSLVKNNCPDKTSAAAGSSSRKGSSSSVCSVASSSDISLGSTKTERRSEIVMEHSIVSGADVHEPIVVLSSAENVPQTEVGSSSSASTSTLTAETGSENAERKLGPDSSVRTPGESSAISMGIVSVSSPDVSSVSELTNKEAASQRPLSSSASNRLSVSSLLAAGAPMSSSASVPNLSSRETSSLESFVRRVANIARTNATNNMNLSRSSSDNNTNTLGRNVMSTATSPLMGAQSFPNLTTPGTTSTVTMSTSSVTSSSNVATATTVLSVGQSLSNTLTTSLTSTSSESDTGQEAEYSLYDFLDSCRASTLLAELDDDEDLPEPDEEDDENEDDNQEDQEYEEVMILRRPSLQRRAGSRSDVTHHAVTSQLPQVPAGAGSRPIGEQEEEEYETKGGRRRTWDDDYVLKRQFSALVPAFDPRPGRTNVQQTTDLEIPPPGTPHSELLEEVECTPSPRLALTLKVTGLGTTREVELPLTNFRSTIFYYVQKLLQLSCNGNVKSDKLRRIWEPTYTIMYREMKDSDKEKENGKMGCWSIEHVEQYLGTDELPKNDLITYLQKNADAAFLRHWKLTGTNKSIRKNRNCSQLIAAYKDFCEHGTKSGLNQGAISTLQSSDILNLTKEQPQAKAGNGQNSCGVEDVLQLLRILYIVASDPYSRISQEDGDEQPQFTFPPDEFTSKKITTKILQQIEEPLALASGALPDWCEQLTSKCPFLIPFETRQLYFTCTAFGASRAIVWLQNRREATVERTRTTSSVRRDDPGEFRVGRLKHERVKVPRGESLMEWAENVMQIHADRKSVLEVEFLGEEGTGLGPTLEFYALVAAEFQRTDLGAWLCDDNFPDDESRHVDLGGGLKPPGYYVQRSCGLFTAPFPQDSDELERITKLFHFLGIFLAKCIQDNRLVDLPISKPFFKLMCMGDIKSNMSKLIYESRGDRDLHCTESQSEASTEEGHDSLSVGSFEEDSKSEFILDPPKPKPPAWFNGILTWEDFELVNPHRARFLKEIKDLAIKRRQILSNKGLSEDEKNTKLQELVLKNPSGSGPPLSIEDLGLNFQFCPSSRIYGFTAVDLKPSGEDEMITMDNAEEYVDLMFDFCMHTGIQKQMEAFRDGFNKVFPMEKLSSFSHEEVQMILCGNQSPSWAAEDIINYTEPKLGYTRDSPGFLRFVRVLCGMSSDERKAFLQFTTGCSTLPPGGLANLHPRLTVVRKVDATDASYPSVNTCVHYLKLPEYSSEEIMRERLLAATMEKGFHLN
UniProt Q9P0J7: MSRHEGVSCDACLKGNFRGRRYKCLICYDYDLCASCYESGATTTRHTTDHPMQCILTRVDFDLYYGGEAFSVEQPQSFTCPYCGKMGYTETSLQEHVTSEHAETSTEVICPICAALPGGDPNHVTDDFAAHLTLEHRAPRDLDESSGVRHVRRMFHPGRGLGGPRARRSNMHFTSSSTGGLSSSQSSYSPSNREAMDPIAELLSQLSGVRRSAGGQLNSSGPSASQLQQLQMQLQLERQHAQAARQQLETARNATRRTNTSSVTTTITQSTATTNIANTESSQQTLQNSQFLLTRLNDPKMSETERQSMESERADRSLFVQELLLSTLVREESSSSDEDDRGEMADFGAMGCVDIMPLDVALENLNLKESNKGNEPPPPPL
UniProt P61163: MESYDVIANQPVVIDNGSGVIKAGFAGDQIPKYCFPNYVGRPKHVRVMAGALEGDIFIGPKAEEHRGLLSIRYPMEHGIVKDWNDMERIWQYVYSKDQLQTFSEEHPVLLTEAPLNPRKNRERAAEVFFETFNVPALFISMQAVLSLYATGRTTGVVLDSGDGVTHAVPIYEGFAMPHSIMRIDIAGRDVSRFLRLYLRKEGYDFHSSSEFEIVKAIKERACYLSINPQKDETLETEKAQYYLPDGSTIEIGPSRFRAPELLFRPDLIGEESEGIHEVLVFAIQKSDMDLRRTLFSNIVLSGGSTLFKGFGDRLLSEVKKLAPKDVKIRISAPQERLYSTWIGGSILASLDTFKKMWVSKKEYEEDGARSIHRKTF
UniProt Q14203: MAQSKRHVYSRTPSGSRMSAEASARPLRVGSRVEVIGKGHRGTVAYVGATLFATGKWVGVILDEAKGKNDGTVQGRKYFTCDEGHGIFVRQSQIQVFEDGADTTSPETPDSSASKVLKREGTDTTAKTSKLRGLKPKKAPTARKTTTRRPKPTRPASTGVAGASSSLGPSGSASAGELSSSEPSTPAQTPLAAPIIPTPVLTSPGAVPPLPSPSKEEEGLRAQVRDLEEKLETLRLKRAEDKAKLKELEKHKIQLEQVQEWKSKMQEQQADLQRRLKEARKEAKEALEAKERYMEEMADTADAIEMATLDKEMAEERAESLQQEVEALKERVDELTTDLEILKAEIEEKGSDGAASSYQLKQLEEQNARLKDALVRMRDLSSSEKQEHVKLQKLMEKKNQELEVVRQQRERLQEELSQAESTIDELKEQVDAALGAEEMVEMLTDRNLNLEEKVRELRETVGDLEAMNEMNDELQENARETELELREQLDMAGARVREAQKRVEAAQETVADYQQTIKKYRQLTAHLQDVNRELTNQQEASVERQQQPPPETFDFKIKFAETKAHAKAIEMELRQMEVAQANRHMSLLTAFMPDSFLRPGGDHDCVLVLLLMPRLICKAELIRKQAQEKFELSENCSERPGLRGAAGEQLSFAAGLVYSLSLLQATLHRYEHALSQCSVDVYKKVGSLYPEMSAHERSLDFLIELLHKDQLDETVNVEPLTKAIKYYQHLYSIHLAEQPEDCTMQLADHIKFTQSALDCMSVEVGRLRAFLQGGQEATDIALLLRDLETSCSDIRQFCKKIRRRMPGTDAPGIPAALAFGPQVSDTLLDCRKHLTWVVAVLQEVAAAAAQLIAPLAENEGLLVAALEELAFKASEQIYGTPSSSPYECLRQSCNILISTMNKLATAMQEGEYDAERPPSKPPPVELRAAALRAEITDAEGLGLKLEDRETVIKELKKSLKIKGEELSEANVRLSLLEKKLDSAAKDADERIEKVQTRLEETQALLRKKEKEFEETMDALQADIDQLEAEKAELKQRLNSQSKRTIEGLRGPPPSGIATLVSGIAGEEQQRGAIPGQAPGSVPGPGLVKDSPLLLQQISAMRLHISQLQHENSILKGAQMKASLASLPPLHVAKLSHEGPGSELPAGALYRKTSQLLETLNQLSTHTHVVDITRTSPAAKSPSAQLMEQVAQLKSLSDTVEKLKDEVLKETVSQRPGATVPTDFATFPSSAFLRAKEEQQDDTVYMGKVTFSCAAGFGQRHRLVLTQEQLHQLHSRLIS
UniProt Q13561: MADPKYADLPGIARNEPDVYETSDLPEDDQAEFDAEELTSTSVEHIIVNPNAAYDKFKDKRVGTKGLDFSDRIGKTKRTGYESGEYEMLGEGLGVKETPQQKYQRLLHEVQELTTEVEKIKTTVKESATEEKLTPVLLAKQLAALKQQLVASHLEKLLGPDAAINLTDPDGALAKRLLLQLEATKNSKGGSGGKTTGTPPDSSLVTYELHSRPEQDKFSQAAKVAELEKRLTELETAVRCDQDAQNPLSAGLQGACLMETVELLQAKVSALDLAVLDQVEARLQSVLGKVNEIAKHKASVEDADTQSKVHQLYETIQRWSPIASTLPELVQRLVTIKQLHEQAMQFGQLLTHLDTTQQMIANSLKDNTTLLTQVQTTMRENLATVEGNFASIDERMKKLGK

These are yes or no findings as the source states them, for the method shown. Binding seen in cells or lysates may run through a third protein. These calls come from enrichment with a bait or labelling near it, and not all partners need be listed. For part of these data: No binding means not detected with the bait.

Assay [1] addresses T1, RNF181 (human (endogenous in H9 hESCs)) (UniProt Q9P0P0).
T1 sequence: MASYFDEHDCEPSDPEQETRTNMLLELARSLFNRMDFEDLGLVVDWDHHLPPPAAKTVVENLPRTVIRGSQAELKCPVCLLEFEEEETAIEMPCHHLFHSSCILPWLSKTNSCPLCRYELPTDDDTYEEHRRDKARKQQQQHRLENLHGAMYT
Put plainly: affinity purification with mass spectrometry; co-immunoprecipitation of endogenous HECTD1 or RNF181 from neurons differentiated from H9 hESCs, label-free MS, FDR < 0.2.

Assay [2] concerns the target T1, RNF181 (human (endogenous in H9 hESCs)). Kind of assay: affinity purification with mass spectrometry; endogenous E3 (HERC2, HECTD1, RNF181, KCMF1 or UBR7) immunoprecipitated with its antibody (4 µg, 30 minutes on ice) from 330 µg H9 hESC RIPA lysate (50 mM Tris-HCl pH 6.7, 150 mM NaCl, 1% Triton x-100, 1% sodium deoxycholate, 1 mM EDTA), µMACS Micro Beads; control co-IP with anti-FLAG antibody; label-free LC-MS/MS, FDR < 0.2; no RNase.

In assay [3] the target is UBE3A (human (endogenous in H9 hESCs)) (UniProt Q05086). Put plainly: affinity purification with mass spectrometry; endogenous UBE3A immunoprecipitated overnight at 4 °C from precleared H9 hESC RIPA lysate (50 mM Tris-HCl pH 7.4, 150 mM NaCl, 1% Triton x-100, 1% sodium deoxycholate, 0.1% SDS, 1 mM EDTA), Protein A beads; control with anti-FLAG antibody; label-free LC-MS/MS, FDR < 0.2.

The target in assay [4] is HECTD1 (human (endogenous in H9 hESCs)) (UniProt Q9ULT8). Put plainly: affinity purification with mass spectrometry; co-immunoprecipitation of endogenous HECTD1 or RNF181 from neurons differentiated from H9 hESCs, label-free MS, FDR < 0.2.
For assay [5] the target is unchanged. Kind of assay: affinity purification with mass spectrometry; co-immunoprecipitation of endogenous HECTD1 from NPCs differentiated from H9 hESCs (n = 3), label-free MS, FDR < 0.2.
The target is the same in assay [6]. Kind of assay: affinity purification with mass spectrometry; endogenous E3 (HERC2, HECTD1, RNF181, KCMF1 or UBR7) immunoprecipitated with its antibody (4 µg, 30 minutes on ice) from 330 µg H9 hESC RIPA lysate (50 mM Tris-HCl pH 6.7, 150 mM NaCl, 1% Triton x-100, 1% sodium deoxycholate, 1 mM EDTA), µMACS Micro Beads; control co-IP with anti-FLAG antibody; label-free LC-MS/MS, FDR < 0.2; no RNase.

Assay [7] addresses T2, UBR7 (human (endogenous in H9 hESCs)) (UniProt Q8N806).
T2 sequence: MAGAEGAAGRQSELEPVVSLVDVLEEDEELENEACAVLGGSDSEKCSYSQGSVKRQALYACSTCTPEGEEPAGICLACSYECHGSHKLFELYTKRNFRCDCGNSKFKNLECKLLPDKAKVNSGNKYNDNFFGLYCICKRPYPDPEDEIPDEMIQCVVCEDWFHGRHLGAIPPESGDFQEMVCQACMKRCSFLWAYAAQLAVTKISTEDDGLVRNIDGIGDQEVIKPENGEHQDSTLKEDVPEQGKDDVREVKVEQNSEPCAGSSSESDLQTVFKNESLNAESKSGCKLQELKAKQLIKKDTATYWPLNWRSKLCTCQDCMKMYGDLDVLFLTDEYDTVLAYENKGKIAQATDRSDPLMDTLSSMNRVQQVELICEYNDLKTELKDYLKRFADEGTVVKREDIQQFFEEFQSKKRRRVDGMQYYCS
The description is as above.

Assay [8] addresses HERC2 (human (endogenous in H9 hESCs)), O95714. Described as above. Conditions: remark: other sources report otherwise.
Assay [9] deals with KCMF1 (human (endogenous in H9 hESCs)) (UniProt Q9P0J7). Described as above.

Take ACTR1A (from UniProt P61163 1-376): the binding entry in assay [1] and in assay [2] was “binds” throughout.
As for AHNAK (from UniProt Q09666 1-5890), in assay [3], the binding entry was “binds”.
As for DCTN1 (from UniProt Q14203 1-1278), the binding entry in assay [1] and in assay [2] was “binds” in each case.
Take DCTN2 (from UniProt Q13561 1-401): the binding entry in assay [1] and in assay [2] was “binds” throughout.

B1: PDHB (protein, UniProt P11177 31-359)
chain: LQVTVRDAINQGMDEELERDEKVFLLGEEVAQYDGAYKVSRGLWKKYGDKRIIDTPISEMGFAGIAVGAAMAGLRPICEFMTFNFSMQAIDQVINSAAKTYYMSGGLQPVPIVFRGPNGASAGVAAQHSQCFAAWYGHCPGLKVVSPWNSEDAKGLIKSAIRDNNPVVVLENELMYGVPFEFPPEAQSKDFLIPIGKAKIERQGTHITVVSHSRPVGHCLEAAAVLSKEGVECEVINMRTIRPMDMETIEASVMKTNHLVTVEGGWPQFGVGAEICARIMEGPAFNFLDAPAVRVTGADVPMPYAKILEDNSIPQVKDIIFAIKKTLNI
On to B1, for which the binding result in assay [4], in assay [5], in [6] and in assay [7] was “binds” throughout.

B2: DLAT (protein, UniProt P10515 87-647)
chain: SLPPHQKVPLPSLSPTMQAGTIARWEKKEGDKINEGDLIAEVETDKATVGFESLEECYMAKILVAEGTRDVPIGAIICITVGKPEDIEAFKNYTLDSSAAPTPQAAPAPTPAATASPPTPSAQAPGSSYPPHMQVLLPALSPTMTMGTVQRWEKKVGEKLSEGDLLAEIETDKATIGFEVQEEGYLAKILVPEGTRDVPLGTPLCIIVEKEADISAFADYRPTEVTDLKPQVPPPTPPPVAAVPPTPQPLAPTPSAPCPATPAGPKGRVFVSPLAKKLAVEKGIDLTQVKGTGPDGRITKKDIDSFVPSKVAPAPAAVVPPTGPGMAPVPTGVFTDIPISNIRRVIAQRLMQSKQTIPHYYLSIDVNMGEVLLVRKELNKILEGRSKISVNDFIIKASALACLKVPEANSSWMDTVIRQNHVVDVSVAVSTPAGLITPIVFNAHIKGVETIANDVVSLATKAREGKLQPHEFQGGTFTISNLGMFGIKNFSAIINPPQACILAIGASEDKLVPADNEKGFDVASMMSVTLSCDHRVVDGAVGAQWLAEFRKYLEKPITMLL
Consider B2, for which the binding entry in assay [4], in assay [5], in [6] and in assay [7] was “binds” in each case.

B3: UBE3A, Q05086 1-875 (enzyme)
chain: MEKLHQCYWKSGEPQSDDIEASRMKRAAAKHLIERYYHQLTEGCGNEACTNEFCASCPTFLRMDNNAAAIKALELYKINAKLCDPHPSKKGASSAYLENSKGAPNNSCSEIKMNKKGARIDFKDVTYLTEEKVYEILELCREREDYSPLIRVIGRVFSSAEALVQSFRKVKQHTKEELKSLQAKDEDKDEDEKEKAACSAAAMEEDSEASSSRIGDSSQGDNNLQKLGPDDVSVDIDAIRRVYTRLLSNEKIETAFLNALVYLSPNVECDLTYHNVYSRDPNYLNLFIIVMENRNLHSPEYLEMALPLFCKAMSKLPLAAQGKLIRLWSKYNADQIRRMMETFQQLITYKVISNEFNSRNLVNDDDAIVAASKCLKMVYYANVVGGEVDTNHNEEDDEEPIPESSELTLQELLGEERRNKKGPRVDPLETELGVKTLDCRKPLIPFEEFINEPLNEVLEMDKDYTFFKVETENKFSFMTCPFILNAVTKNLGLYYDNRIRMYSERRITVLYSLVQGQQLNPYLRLKVRRDHIIDDALVRLEMIAMENPADLKKQLYVEFEGEQGVDEGGVSKEFFQLVVEEIFNPDIGMFTYDESTKLFWFNPSSFETEGQFTLIGIVLGLAIYNNCILDVHFPMVVYRKLMGKKGTFRDLGDSHPVLYQSLKDLLEYEGNVEDDMMITFQISQTDLFGNPMMYDLKENGDKIPITNENRKEFVNLYSDYILNKSVEKQFKAFRRGFHMVTNESPLKYLFRPEEIELLICGSRNLDFQALEETTEYDGGYTRDSVLIREFWEIVHSFTDEQKRLFLQFTTGTDRAPVGGLGKLKMIIAKNGPDTERLPTSHTCFNVLLLPEYSSKEKLKERLLKAITYAKGFGML
Turning to B3, the binding result in assay [8] is recorded as “no binding”.

B4: SAE1 (protein, UniProt Q9UBE0 1-346)
chain: MVEKEEAGGGISEEEAAQYDRQIRLWGLEAQKRLRASRVLLVGLKGLGAEIAKNLILAGVKGLTMLDHEQVTPEDPGAQFLIRTGSVGRNRAEASLERAQNLNPMVDVKVDTEDIEKKPESFFTQFDAVCLTCCSRDVIVKVDQICHKNSIKFFTGDVFGYHGYTFANLGEHEFVEEKTKVAKVSQGVEDGPDTKRAKLDSSETTMVKKKVVFCPVKEALEVDWSSEKAKAALKRTTSDYFLLQVLLKFRTDKGRDPSSDTYEEDSELLLQIRNDVLDSLGISPDLLPEDFVRYCFSEMAPVCAVVGGILAQEIVKALSQRDPPHNNFFFFDGMKGNGIVECLGPK
Turning to B4, in assay [3], the binding entry is recorded as “binds”.

B5: HMMR (protein, UniProt O75330 1-724)
chain: MSFPKAPLKRFNDPSGCAPSPGAYDVKTLEVLKGPVSFQKSQRFKQQKESKQNLNVDKDTTLPASARKVKSSESKESQKNDKDLKILEKEIRVLLQERGAQDRRIQDLETELEKMEARLNAALREKTSLSANNATLEKQLIELTRTNELLKSKFSENGNQKNLRILSLELMKLRNKRETKMRGMMAKQEGMEMKLQVTQRSLEESQGKIAQLEGKLVSIEKEKIDEKSETEKLLEYIEEISCASDQVEKYKLDIAQLEENLKEKNDEILSLKQSLEENIVILSKQVEDLNVKCQLLEKEKEDHVNRNREHNENLNAEMQNLKQKFILEQQEREKLQQKELQIDSLLQQEKELSSSLHQKLCSFQEEMVKEKNLFEEELKQTLDELDKLQQKEEQAERLVKQLEEEAKSRAEELKLLEEKLKGKEAELEKSSAAHTQATLLLQEKYDSMVQSLEDVTAQFESYKALTASEIEDLKLENSSLQEKAAKAGKNAEDVQHQILATESSNQEYVRMLLDLQTKSALKETEIKEITVSFLQKITDLQNQLKQQEEDFRKQLEDEEGRKAEKENTTAELTEEINKWRLLYEELYNKTKPFQLQLDAFEVEKQALLNEHGAAQEQLNKIRDSYAKLLGHQNLKQKIKHVVKLKDENSQLKSEVSKLRCQLAKKKQSETKLQEELNKVLGIKHFDPSKAFHHESKENFALKTPLKEGNTNCYRAPMECQESWK
Take B5: the binding result in assay [9] was “binds”.
